Experimental data reported in patent publication US20180177845A1, “METHOD FOR TREATMENT OR PREVENTION OF A CANCER” (priority 2016, published 2018).
No constants are given. Whether binding was seen depends on the method and setting. Binding seen in cells or lysates may run through a third protein. Some binding calls cover weakened binding; strength is not graded here. Tags and fused reporters may be left off the sequences shown.

By UniProt entry, the sequences of proteins in these tests, tags left out. Residues count along the entry.
UniProt P16144, residues 28-1822: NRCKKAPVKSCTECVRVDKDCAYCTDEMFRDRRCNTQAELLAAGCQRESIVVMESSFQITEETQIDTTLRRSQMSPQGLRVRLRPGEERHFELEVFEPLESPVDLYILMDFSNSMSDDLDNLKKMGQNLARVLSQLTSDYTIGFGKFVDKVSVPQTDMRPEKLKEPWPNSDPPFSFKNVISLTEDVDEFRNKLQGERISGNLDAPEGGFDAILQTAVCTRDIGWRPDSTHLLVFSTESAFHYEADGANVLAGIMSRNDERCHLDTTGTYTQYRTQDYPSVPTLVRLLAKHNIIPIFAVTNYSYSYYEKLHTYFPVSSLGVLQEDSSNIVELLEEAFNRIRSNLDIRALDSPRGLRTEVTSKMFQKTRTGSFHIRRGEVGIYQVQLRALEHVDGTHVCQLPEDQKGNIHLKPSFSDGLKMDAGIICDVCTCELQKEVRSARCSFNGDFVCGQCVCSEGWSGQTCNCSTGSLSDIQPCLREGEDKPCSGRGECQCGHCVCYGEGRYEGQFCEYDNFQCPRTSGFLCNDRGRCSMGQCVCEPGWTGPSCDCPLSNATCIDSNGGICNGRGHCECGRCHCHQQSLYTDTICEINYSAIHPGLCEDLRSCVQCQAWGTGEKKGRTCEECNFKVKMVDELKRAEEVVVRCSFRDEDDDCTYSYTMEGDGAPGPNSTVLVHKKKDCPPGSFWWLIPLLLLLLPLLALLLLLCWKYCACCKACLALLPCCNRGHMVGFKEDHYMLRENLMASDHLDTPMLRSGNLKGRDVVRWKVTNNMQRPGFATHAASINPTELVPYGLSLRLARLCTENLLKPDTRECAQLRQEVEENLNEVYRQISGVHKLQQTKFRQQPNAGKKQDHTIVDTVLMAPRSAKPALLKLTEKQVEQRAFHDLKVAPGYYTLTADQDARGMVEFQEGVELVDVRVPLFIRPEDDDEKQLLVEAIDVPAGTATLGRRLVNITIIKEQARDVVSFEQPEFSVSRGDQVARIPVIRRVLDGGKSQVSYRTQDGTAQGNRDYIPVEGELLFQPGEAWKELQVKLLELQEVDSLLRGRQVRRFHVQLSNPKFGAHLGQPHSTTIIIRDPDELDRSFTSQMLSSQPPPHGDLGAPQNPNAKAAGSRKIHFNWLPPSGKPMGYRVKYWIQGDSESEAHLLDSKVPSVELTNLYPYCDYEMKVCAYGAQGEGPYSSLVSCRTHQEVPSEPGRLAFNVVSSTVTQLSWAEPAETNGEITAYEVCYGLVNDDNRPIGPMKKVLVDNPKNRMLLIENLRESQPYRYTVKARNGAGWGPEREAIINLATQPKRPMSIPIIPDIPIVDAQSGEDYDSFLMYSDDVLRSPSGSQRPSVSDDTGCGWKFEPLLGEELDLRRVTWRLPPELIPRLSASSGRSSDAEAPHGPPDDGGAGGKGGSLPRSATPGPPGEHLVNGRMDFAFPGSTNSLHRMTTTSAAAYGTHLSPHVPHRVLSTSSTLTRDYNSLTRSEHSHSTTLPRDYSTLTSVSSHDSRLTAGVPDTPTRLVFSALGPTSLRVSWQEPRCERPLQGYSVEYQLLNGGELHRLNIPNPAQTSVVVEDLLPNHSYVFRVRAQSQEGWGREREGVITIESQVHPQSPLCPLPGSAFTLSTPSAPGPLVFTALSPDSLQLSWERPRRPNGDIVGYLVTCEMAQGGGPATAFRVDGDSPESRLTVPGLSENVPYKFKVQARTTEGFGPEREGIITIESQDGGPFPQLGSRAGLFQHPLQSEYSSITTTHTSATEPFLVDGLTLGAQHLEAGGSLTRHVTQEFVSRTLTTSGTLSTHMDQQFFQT

Assays:
β4 integrin (human) [1] = target: β4 integrin (human) (UniProt P16144); assay: overexpression in MDA-MB-231 cells, co-immunoprecipitation
β4 integrin (human) [2] = target: β4 integrin (human) (UniProt P16144); assay: co-immunoprecipitation with β4 integrin in MDA-MB-231 cells; competitor full-length FAK (FIG. 4(a))
β4 integrin (human) [3] = target: β4 integrin (human) (UniProt P16144); assay: co-immunoprecipitation with β4 integrin at rising FAK/25aa expression, MDA-MB-231 cells (FIG. 4(a))

Measured: binding

LANNEKQGVRSHTVSVSETDDYAEI (peptide, not shown: large carriers) [GFP-tagged FAK/25aa]
binds: all assays above
